{"source": "PubChem BioAssay AID1224829 (NIAID, 2016)", "screen": "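Secondary check of hits that alter LPS-induced p65 translocation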 (follow-up of hits)", "cell system": "mouse RAW264.7 G9 macrophage reporter cells", "reagent": "single siRNA against mouse genes, 100 nM", "time to read-out": "2 days of siRNA knock-down, then 40 min of LPS before fixing", "challenge": "LPS (Salmonella minnesota R595) at 10 ng/ml", "detection": "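Imaging of GFP-p65 after 40 min of LPS; nuclear over perinuclear ring intensity ratio, scaled to plate median and non-targeting control wells, given as z-score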", "direction": "p65 translocation z-score: higher = more nuclear NF-kappaB p65 after LPS", "hit rule": "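An siRNA is called active when the mean z-score of its two replicates is above 2 or below -2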", "calls": "active = changed p65 translocation (either direction); inactive = no clear change", "note": "The whole screen tested about 3,800 reagents; shown is a part drawn at random. 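Calls cover raised and lowered translocation; gene median uses one vendor's three siRNAs; qiagen siRNAs acted more weakly than ambion siRNAs.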 Reagents against one gene are numbered here. Further read-outs or replicates are left out here."}
{"Gene": "Actg1 (actin, gamma, cytoplasmic 1)", "reagent no.": 1, "siRNA vendor or control pool": "ambion single siRNA", "p65 translocation z-score, replicate mean": -1.58, "p65 translocation z-score, replicate 1": -1.05, "Outcome": "inactive"}
{"Gene": "Actg1 (actin, gamma, cytoplasmic 1)", "reagent no.": 2, "siRNA vendor or control pool": "ambion single siRNA", "p65 translocation z-score, replicate mean": -3.46, "p65 translocation z-score, replicate 1": -3.2, "Outcome": "active"}
{"Gene": "Actg1 (actin, gamma, cytoplasmic 1)", "reagent no.": 3, "siRNA vendor or control pool": "ambion single siRNA", "p65 translocation z-score, replicate mean": -4.86, "p65 translocation z-score, replicate 1": -5.65, "Outcome": "active"}
{"Gene": "Actg1 (actin, gamma, cytoplasmic 1)", "reagent no.": 4, "siRNA vendor or control pool": "qiagen single siRNA", "p65 translocation z-score, replicate mean": 0.475, "p65 translocation z-score, replicate 1": -0.061, "Outcome": "inactive"}
{"Gene": "Actg1 (actin, gamma, cytoplasmic 1)", "reagent no.": 5, "siRNA vendor or control pool": "qiagen single siRNA", "p65 translocation z-score, replicate mean": -2.22, "p65 translocation z-score, replicate 1": -1.54, "Outcome": "active"}
{"Gene": "Actg1 (actin, gamma, cytoplasmic 1)", "reagent no.": 6, "siRNA vendor or control pool": "qiagen single siRNA", "p65 translocation z-score, replicate mean": -3.86, "p65 translocation z-score, replicate 1": -3.03, "Outcome": "active"}

Called active (from the list above):
{"Gene": "Actg1 (actin, gamma, cytoplasmic 1)", "reagent no.": 2, "siRNA vendor or control pool": "ambion single siRNA", "p65 translocation z-score, replicate mean": -3.46, "p65 translocation z-score, replicate 1": -3.2, "Outcome": "active"}
{"Gene": "Actg1 (actin, gamma, cytoplasmic 1)", "reagent no.": 3, "siRNA vendor or control pool": "ambion single siRNA", "p65 translocation z-score, replicate mean": -4.86, "p65 translocation z-score, replicate 1": -5.65, "Outcome": "active"}
{"Gene": "Actg1 (actin, gamma, cytoplasmic 1)", "reagent no.": 5, "siRNA vendor or control pool": "qiagen single siRNA", "p65 translocation z-score, replicate mean": -2.22, "p65 translocation z-score, replicate 1": -1.54, "Outcome": "active"}
{"Gene": "Actg1 (actin, gamma, cytoplasmic 1)", "reagent no.": 6, "siRNA vendor or control pool": "qiagen single siRNA", "p65 translocation z-score, replicate mean": -3.86, "p65 translocation z-score, replicate 1": -3.03, "Outcome": "active"}

More reagents follow.
{"Gene": "Rpf2 (ribosome production factor 2 homolog)", "reagent no.": 1, "siRNA vendor or control pool": "ambion single siRNA", "p65 translocation z-score, replicate mean": -0.518, "p65 translocation z-score, replicate 1": -0.518, "Outcome": "inactive"}
{"Gene": "Rpf2 (ribosome production factor 2 homolog)", "reagent no.": 2, "siRNA vendor or control pool": "ambion single siRNA", "p65 translocation z-score, replicate mean": -0.765, "p65 translocation z-score, replicate 1": -0.954, "Outcome": "inactive"}
{"Gene": "Rpf2 (ribosome production factor 2 homolog)", "reagent no.": 3, "siRNA vendor or control pool": "ambion single siRNA", "p65 translocation z-score, replicate mean": -0.727, "p65 translocation z-score, replicate 1": -1.31, "Outcome": "inactive"}
{"Gene": "Rpf2 (ribosome production factor 2 homolog)", "reagent no.": 4, "siRNA vendor or control pool": "qiagen single siRNA", "p65 translocation z-score, replicate mean": -0.173, "p65 translocation z-score, replicate 1": 0.313, "Outcome": "inactive"}
{"Gene": "Rpf2 (ribosome production factor 2 homolog)", "reagent no.": 5, "siRNA vendor or control pool": "qiagen single siRNA", "p65 translocation z-score, replicate mean": 2.52, "p65 translocation z-score, replicate 1": 2.22, "Outcome": "active"}
{"Gene": "Rpf2 (ribosome production factor 2 homolog)", "reagent no.": 6, "siRNA vendor or control pool": "qiagen single siRNA", "p65 translocation z-score, replicate mean": -4.85, "p65 translocation z-score, replicate 1": -1.08, "Outcome": "active"}
